{
  "source": "patent US20100278907A1",
  "about": "“Immunogenic Compositions Containing Ceramide and Methods of Use Thereof” (Medical College of Georgia Research Institute, Inc, priority 2008, published 2010)",
  "origin": "cited, not measured here",
  "test_system": "rats with ischemic stroke",
  "details": "cited from earlier work",
  "note": "For at least one compound, name, drawing or mass did not settle the structure.",
  "data": [
    {"smiles": "C=CC[C@@H]1/C=C(\\C)C[C@H](C)C[C@H](OC)[C@H]2O[C@@](O)(C(=O)C(=O)N3CCCC[C@H]3C(=O)O[C@H](/C(C)=C/[C@@H]3CC[C@@H](O)[C@H](OC)C3)[C@H](C)[C@@H](O)CC1=O)[C@H](C)C[C@@H]2OC", "note": "[FK506]", "values": [
      {"measurement": "ceramide generation and apoptosis", "value": "inhibit"}
    ]}
  ]
}
